From the supplement of paper PMC7661543
Differences between knockout arms are mostly noise.

Tested on: HCC-38
Assay: relative cell number vs DMSO control (72 h) (% of DMSO); higher = less growth inhibition (more cells)
Method: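 QMAP-Seq: a pool of 5 breast cancer cell lines (ZR-75-1, SKBR3, HCC-38, MDA-MB-231, BT-20), each carrying 12 doxycycline-inducible Cas9 sgRNA perturbations (11 knockouts plus non-targeting sgNT), was treated with compounds for 72 h at four 10-fold doses (10 nM-10 uM or 1 nM-1 uM range). Barcodes were amplified and sequenced, and cell number was interpolated from 293T spike-in standard curves. The result is expressed as % of the median of DMSO wells. Two biological replicates.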

O=C1c2c(O)ccc(O)c2C(=O)c2c(NCCNCCO)ccc(NCCNCCO)c21 [Mitoxantrone]
Details	relative cell number
sgRNA knockout: sgATF3, 10 nM	34.3
sgRNA knockout: sgATF3, 100 nM	27.6
sgRNA knockout: sgATF3, 1000 nM	9.76
sgRNA knockout: sgATF3, 10000 nM	7.51
sgRNA knockout: sgATF4, 10 nM	36.8
sgRNA knockout: sgATF4, 100 nM	30.1
sgRNA knockout: sgATF4, 1000 nM	9.3
sgRNA knockout: sgATF4, 10000 nM	6.75
sgRNA knockout: sgATF6, 10 nM	39.2
sgRNA knockout: sgATF6, 100 nM	25.8
sgRNA knockout: sgATF6, 1000 nM	9.11
sgRNA knockout: sgATF6, 10000 nM	9.24
sgRNA knockout: sgATG7, 10 nM	39.5
sgRNA knockout: sgATG7, 100 nM	31.96
sgRNA knockout: sgATG7, 1000 nM	9.06
sgRNA knockout: sgATG7, 10000 nM	7.85
sgRNA knockout: sgERN1, 10 nM	33.5
sgRNA knockout: sgERN1, 100 nM	29.588
sgRNA knockout: sgERN1, 1000 nM	10
sgRNA knockout: sgERN1, 10000 nM	7.25
sgRNA knockout: sgHSF1, 10 nM	50.3
sgRNA knockout: sgHSF1, 100 nM	28.7
sgRNA knockout: sgHSF1, 1000 nM	5.68
sgRNA knockout: sgHSF1, 10000 nM	9.98
sgRNA knockout: sgHSF2, 10 nM	39.8
sgRNA knockout: sgHSF2, 100 nM	28.9
sgRNA knockout: sgHSF2, 1000 nM	10.3
sgRNA knockout: sgHSF2, 10000 nM	8.52
sgRNA knockout: sgKEAP1, 10 nM	43.88
sgRNA knockout: sgKEAP1, 100 nM	27.8
sgRNA knockout: sgKEAP1, 1000 nM	8.61
sgRNA knockout: sgKEAP1, 10000 nM	8.22
sgRNA knockout: sgNFE2L2, 10 nM	34.6
sgRNA knockout: sgNFE2L2, 100 nM	31.6
sgRNA knockout: sgNFE2L2, 1000 nM	9.27
sgRNA knockout: sgNFE2L2, 10000 nM	7.216
sgRNA knockout: sgSLC35F2, 10 nM	37.8
sgRNA knockout: sgSLC35F2, 100 nM	31.6
sgRNA knockout: sgSLC35F2, 1000 nM	8.3
sgRNA knockout: sgSLC35F2, 10000 nM	6.34
sgRNA knockout: sgXBP1, 10 nM	34.9
sgRNA knockout: sgXBP1, 100 nM	32.2
sgRNA knockout: sgXBP1, 1000 nM	9.27
sgRNA knockout: sgXBP1, 10000 nM	7.03

O=C(/C=C/c1ccc(O)cc1)c1ccc(O)cc1O [Isoliquiritigenin]
Details	relative cell number
sgRNA knockout: sgATF3, 10 nM	94
sgRNA knockout: sgATF3, 100 nM	98.7
sgRNA knockout: sgATF3, 1000 nM	86.1
sgRNA knockout: sgATF3, 10000 nM	89.5
sgRNA knockout: sgATF4, 10 nM	91.4
sgRNA knockout: sgATF4, 100 nM	94.6
sgRNA knockout: sgATF4, 1000 nM	86.4
sgRNA knockout: sgATF4, 10000 nM	77
sgRNA knockout: sgATF6, 10 nM	81.1
sgRNA knockout: sgATF6, 100 nM	93.3
sgRNA knockout: sgATF6, 1000 nM	104
sgRNA knockout: sgATF6, 10000 nM	115
sgRNA knockout: sgATG7, 10 nM	97
sgRNA knockout: sgATG7, 100 nM	99.1
sgRNA knockout: sgATG7, 1000 nM	92.314
sgRNA knockout: sgATG7, 10000 nM	86.7
sgRNA knockout: sgERN1, 10 nM	97.3
sgRNA knockout: sgERN1, 100 nM	94.6
sgRNA knockout: sgERN1, 1000 nM	91.2
sgRNA knockout: sgERN1, 10000 nM	99.9
sgRNA knockout: sgHSF1, 10 nM	79.7
sgRNA knockout: sgHSF1, 100 nM	84.5
sgRNA knockout: sgHSF1, 1000 nM	110
sgRNA knockout: sgHSF1, 10000 nM	84.3
sgRNA knockout: sgHSF2, 10 nM	99.9
sgRNA knockout: sgHSF2, 100 nM	113
sgRNA knockout: sgHSF2, 1000 nM	92
sgRNA knockout: sgHSF2, 10000 nM	86
sgRNA knockout: sgKEAP1, 10 nM	90.4
sgRNA knockout: sgKEAP1, 100 nM	96.27
sgRNA knockout: sgKEAP1, 1000 nM	98
sgRNA knockout: sgKEAP1, 10000 nM	95.4
sgRNA knockout: sgNFE2L2, 10 nM	91.5
sgRNA knockout: sgNFE2L2, 100 nM	92.9
sgRNA knockout: sgNFE2L2, 1000 nM	80.2
sgRNA knockout: sgNFE2L2, 10000 nM	77.8
sgRNA knockout: sgSLC35F2, 10 nM	86.6
sgRNA knockout: sgSLC35F2, 100 nM	98.2
sgRNA knockout: sgSLC35F2, 1000 nM	98.1
sgRNA knockout: sgSLC35F2, 10000 nM	81.902
sgRNA knockout: sgXBP1, 10 nM	96.4
sgRNA knockout: sgXBP1, 100 nM	93.8
sgRNA knockout: sgXBP1, 1000 nM	91.9
sgRNA knockout: sgXBP1, 10000 nM	87.9

Cc1ccc(S(=O)(=O)OCC(=O)Nc2ccc(C(=O)O)c(O)c2)cc1
Details	relative cell number
sgRNA knockout: sgATF3, 10 nM	114
sgRNA knockout: sgATF3, 100 nM	97.1
sgRNA knockout: sgATF3, 1000 nM	93.8
sgRNA knockout: sgATF3, 10000 nM	87.5
sgRNA knockout: sgATF4, 10 nM	110
sgRNA knockout: sgATF4, 100 nM	102
sgRNA knockout: sgATF4, 1000 nM	87.1
sgRNA knockout: sgATF4, 10000 nM	85.1
sgRNA knockout: sgATF6, 10 nM	117
sgRNA knockout: sgATF6, 100 nM	107
sgRNA knockout: sgATF6, 1000 nM	86.8
sgRNA knockout: sgATF6, 10000 nM	84.1
sgRNA knockout: sgATG7, 10 nM	114.3
sgRNA knockout: sgATG7, 100 nM	89.8
sgRNA knockout: sgATG7, 1000 nM	87.2
sgRNA knockout: sgATG7, 10000 nM	86.4
sgRNA knockout: sgERN1, 10 nM	109
sgRNA knockout: sgERN1, 100 nM	100
sgRNA knockout: sgERN1, 1000 nM	91.1
sgRNA knockout: sgERN1, 10000 nM	86.3
sgRNA knockout: sgHSF1, 10 nM	119
sgRNA knockout: sgHSF1, 100 nM	102
sgRNA knockout: sgHSF1, 1000 nM	103
sgRNA knockout: sgHSF1, 10000 nM	93.9
sgRNA knockout: sgHSF2, 10 nM	122
sgRNA knockout: sgHSF2, 100 nM	102.7
sgRNA knockout: sgHSF2, 1000 nM	101
sgRNA knockout: sgHSF2, 10000 nM	95.4
sgRNA knockout: sgKEAP1, 10 nM	126
sgRNA knockout: sgKEAP1, 100 nM	112
sgRNA knockout: sgKEAP1, 1000 nM	110.2
sgRNA knockout: sgKEAP1, 10000 nM	106
sgRNA knockout: sgNFE2L2, 10 nM	107.7
sgRNA knockout: sgNFE2L2, 100 nM	93
sgRNA knockout: sgNFE2L2, 1000 nM	89.9
sgRNA knockout: sgNFE2L2, 10000 nM	88.5
sgRNA knockout: sgSLC35F2, 10 nM	109
sgRNA knockout: sgSLC35F2, 100 nM	106
sgRNA knockout: sgSLC35F2, 1000 nM	88.1
sgRNA knockout: sgSLC35F2, 10000 nM	90.2
sgRNA knockout: sgXBP1, 10 nM	116.5
sgRNA knockout: sgXBP1, 100 nM	99.8
sgRNA knockout: sgXBP1, 1000 nM	88.5
sgRNA knockout: sgXBP1, 10000 nM	94.7
